Measurements reported in PubChem BioAssay AID1259290 (Sanger Institute, 2017).
Test: 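Kinases whose loss kills colorectal cancer cells alone or alongside targeted drugs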 (primary screen). Cells: human SNUC1 colorectal cancer cells. Reagents: siRNA pool against human genes. Challenge: anchor drugs BYL719 1 µM, cetuximab 5 µg/ml or trametinib 10 nM, or DMSO vehicle alone. Measurement: 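Viability averaged over replicates and scaled to non-targeting siRNA, robust z-score with no drug, and synergy scores by drug for BYL719, cetuximab and trametinib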. Reading the numbers: viability z-score, siRNA alone: higher = more viable cells; low values mean essential gene; viability vs control, siRNA alone: higher = more viable cells; synergy score with BYL719 and synergy score with Cetuximab and synergy score with Trametinib: higher = stronger synthetic lethal effect with drug. Rule for the call: 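a knock-down without drug scoring a robust z under -3 counts as essential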. Meaning of the calls: active = essential: knock-down alone cut viability (z below -3); inactive = no clear viability loss with knock-down alone.
Shown is one part, drawn at random, of 794 reagents tested. 9 of all reagents (1.1%) count as active. 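Calls rest on knock-down alone, not drug synergy; synergy above 0.15 was grouped apart and does not affect calls.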 No viability above 1 is reported: the scale is capped. Not given: the amount of reagent, the time to read-out.

gene	viability z-score, siRNA alone	viability vs control, siRNA alone	synergy score with BYL719	synergy score with Cetuximab	synergy score with Trametinib	activity call
MARK3	-0.998	0.826	-0.0315	0.00934	0.0162	inactive
PRKAR2A	0.399	0.952	-0.0924	-0.00391	-0.0361	inactive
PI4K2B	0.152	0.929	-0.155	-0.0324	-0.0428	inactive
RIOK1	0.601	0.97	0.0158	0.0555	-0.0104	inactive
NUP62	-1.1	0.816	-0.193	0.00855	-0.049	inactive
PLK3	0.0893	0.924	-0.0257	0.00714	-0.0213	inactive
PIKFYVE	0.719	0.98	-0.0414	0.0726	0.0608	inactive
RIOK2	-0.247	0.893	0.0548	0.171	0.006	inactive
HIPK2	0.0583	0.921	-0.213	0.105	-0.00985	inactive
PIK3R5	0.113	0.926	-0.0483	0.068	-0.135	inactive
PAK2	0.396	0.951	-0.237	-0.0912	0.0263	inactive
STK25	0.825	0.99	-0.166	-0.0543	-0.0178	inactive
EPHB2	-0.383	0.881	-0.239	-0.04	-0.0531	inactive
ARID1A	0.309	0.943	-0.138	0.107	-0.17	inactive
PRKCH	0.936	1	-0.0571	-0.0447	-0.0101	inactive
FGR	0.171	0.931	-0.0447	0.104	0.129	inactive
CKS1B	-0.393	0.88	-0.0201	0.0137	0.033	inactive
SMAD4	-1.31	0.797	-0.311	-0.0439	-0.166	inactive
CDK15	-1.34	0.795	-0.137	-0.104	-0.0473	inactive
PRP4K	-1.19	0.808	-0.0835	-0.0113	-0.0209	inactive
MAGI2	-1.64	0.768	-0.126	0.00296	0.0656	inactive
SF3B1	-3.32	0.617	-0.181	-0.0881	-0.169	active
CERK	-1.22	0.806	-0.139	-0.0862	0.0327	inactive
PFKFB4	0.312	0.944	-0.145	-0.0111	0.126	inactive
FER	-0.109	0.906	-0.0541	-0.0507	-0.134	inactive
DLG1	-0.228	0.895	0.0309	-0.058	-0.0501	inactive
PRKCQ	0.135	0.928	0.103	0.0795	0.022	inactive
INSR	0.139	0.928	0.00538	0.0327	0.0579	inactive
TESK1	-0.0688	0.909	0.0154	0.0206	0.0295	inactive
BRSK2	0.827	0.99	0.0643	0.0298	0.191	inactive
MAST2	-0.484	0.872	-0.159	-0.0951	-0.0507	inactive
CERT1	0.376	0.95	-0.161	-0.0869	-0.025	inactive
NEK11	-0.723	0.851	-0.0397	0.0415	0.0924	inactive
PIM1	-1.48	0.782	0.0572	-0.00707	0.0181	inactive
TEK	0.0378	0.919	-0.173	-0.0347	-0.0494	inactive
ATM	0.936	1	-0.15	-0.0447	0.0026	inactive
GRK7	-1.67	0.765	0.031	-0.0488	-0.00279	inactive
TSSK4	0.936	1	-0.179	-0.0447	0.00629	inactive
ATR	0.827	0.99	0.0257	0.0522	-0.0171	inactive
EPHA5	0.936	1	-0.134	-0.0447	0.0107	inactive
TRIM27	0.783	0.986	-0.192	-0.0579	0.0196	inactive
CAMK2N1	-0.708	0.852	-0.153	-0.0933	-0.0531	inactive
CDKN2D	-1.02	0.823	-0.123	-0.147	0.129	inactive
RPS6KA5	-0.403	0.879	-0.181	-0.0202	0.00706	inactive
HK1	0.915	0.998	-0.149	-0.0466	0.128	inactive
SLK	0.936	1	-0.198	0.0868	-0.0857	inactive
PANK4	-1.59	0.772	-0.186	-0.117	-0.125	inactive
CSNK1G1	-3.37	0.612	-0.289	-0.238	-0.205	active
PIP4K2B	0.936	1	-0.198	-0.0447	0.0541	inactive
FLT3	0.0396	0.919	-0.108	-0.00951	0.0362	inactive

Taken from above:
Result for FGR under “activity call”: inactive
SF3B1, synergy score with Cetuximab = -0.0881
ARID1A, synergy score with BYL719 = -0.138
For “activity call”, RPS6KA5 reads inactive
